Results: PubChem BioAssay AID256 (DTP/NCI, 2004)
The list does not hold the whole screen: it is rich in T/C values a quarter to a half above the control, in often repeated tests (any T/C) and in doses without a T/C. Other doses and runs of a compound stand elsewhere. T/C: endpoint of the treated group in % of that of the vehicle group. Some doses have a count of surviving animals in place of a T/C: the source files T/C as zero there, which appears to mark a toxic dose or a test without result, not a measured value. Counts of survivors are from the toxicity check (mostly the fifth day) where no day follows; animals may have died later. Schedules are NCI's codes, read here as Q, the interval in days (D) or hours (H), X, the number of doses. Some doses were run more than once; their values stand side by side, smallest first. Marks such as (2×) give the number of equal values in this list. Some doses without a T/C left all or most animals alive at the check, yet need not have been tolerated: survival well below the control is almost never listed, so the zero probably covers shortened survival too. Where survival is the endpoint, the PubChem record calls one and a half times the control and up active, and a quarter to a half above the control has no call in these data; cut-offs in other NCI protocols can differ. Some T/C values are followed by the survivors on the day toxicity was checked, most often the fifth; where none is given, no animal had died by that day.

Tested on: CD2F1 mice, L1210 leukemia ip, survival T/C
Assay: NCI In Vivo Anticancer Drug Screen. Data for tumor model L1210 Leukemia (intraperitoneal) in CD2F1 (CDF1) mice
Conditions: higher T/C = longer survival
How it was run: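 Activity against a transplanted murine tumor was judged by comparing the compound group with a vehicle group. The outcome in the treated animals was divided by that in the controls.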

[1] = T/C endpoint: mean survival time, dose: 600.0 mg/kg/injection, schedule: Q01DX001 (ip), vehicle: saline
[2] = T/C endpoint: mean survival time, dose: 800.0 mg/kg/injection, schedule: Q01DX001 (ip), vehicle: saline

In the case of `O=P1(N(CCCl)CCCl)NCCCO1` (centres undefined), the T/C (T/C endpoint: mean survival time, dose: 250.0 mg/kg/injection, schedule: Q01DX001 (ip), vehicle: water, evaluated on day 35) is reported as 90 [5 of 6 alive] and 193 % of control, the T/C (T/C endpoint: mean survival time, dose: 250.0 mg/kg/injection, schedule: Q01DX001 (ip), vehicle: water, evaluated on day 40) is reported as 405 and 426 % of control and the T/C (T/C endpoint: mean survival time, dose: 250.0 mg/kg/injection, schedule: Q01DX001 (ip), vehicle: water, evaluated on day 45) is reported as 244 and 344 % of control. For the same compound, the T/C (T/C endpoint: mean survival time, dose: 250.0 mg/kg/injection, schedule: Q01DX001 (ip), vehicle: water, evaluated on day 60) was 195 % of control, the T/C (T/C endpoint: mean survival time, dose: 300.0 mg/kg/injection, schedule: Q01DX001 (ip), vehicle: saline, evaluated on day 5) was 210 and 267 % of control and the T/C (T/C endpoint: mean survival time, dose: 300.0 mg/kg/injection, schedule: Q01DX001 (ip), vehicle: saline, evaluated on day 6) was 219 % of control. The T/C (T/C endpoint: mean survival time, dose: 300.0 mg/kg/injection, schedule: Q01DX001 (ip), vehicle: saline, evaluated on day 30) was 118, 126, 184, 244, 245, 256, 301 % of control, the T/C (T/C endpoint: mean survival time, dose: 300.0 mg/kg/injection, schedule: Q01DX001 (ip), vehicle: saline, evaluated on day 45) was 529 % of control and the T/C (T/C endpoint: mean survival time, dose: 300.0 mg/kg/injection, schedule: Q01DX001 (ip), vehicle: saline, evaluated on day 90) was 100, 176, 204, 237, 320, 687, 757 % of control. The survivor count (T/C endpoint: mean survival time, dose: 400.0 mg/kg/injection, schedule: Q01DX001 (ip), vehicle: Klucel (hydroxypropylcellulose) (HPC)) was 2 of 6, the T/C (T/C endpoint: mean survival time, dose: 400.0 mg/kg/injection, schedule: Q01DX001 (ip), vehicle: saline, evaluated on day 5) was 251, 270, 283, 348, 359, 363, 468, 474, 487 % of control and the T/C (T/C endpoint: mean survival time, dose: 400.0 mg/kg/injection, schedule: Q01DX001 (ip), vehicle: saline, evaluated on day 6) was 221 % of control. For the same compound, the T/C (T/C endpoint: mean survival time, dose: 400.0 mg/kg/injection, schedule: Q01DX001 (ip), vehicle: saline, evaluated on day 30) was 90 [4 of 6 alive], 185 [5 of 6 alive], 203 [4 of 6 alive], 260, 271 [5 of 6 alive], 278 % of control, the T/C (T/C endpoint: mean survival time, dose: 400.0 mg/kg/injection, schedule: Q01DX001 (ip), vehicle: saline, evaluated on day 32) was 221 % of control and the T/C (T/C endpoint: mean survival time, dose: 400.0 mg/kg/injection, schedule: Q01DX001 (ip), vehicle: saline, evaluated on day 35) was 251 and 297 % of control. For the same compound, the T/C (T/C endpoint: mean survival time, dose: 400.0 mg/kg/injection, schedule: Q01DX001 (ip), vehicle: saline, evaluated on day 40) was 392 % of control, the T/C (T/C endpoint: mean survival time, dose: 400.0 mg/kg/injection, schedule: Q01DX001 (ip), vehicle: saline, evaluated on day 60) was 270 [9 of 10 alive], 309 [9 of 10 alive], 360 [8 of 10 alive], 468, 522, 536 % of control and the T/C (T/C endpoint: mean survival time, dose: 400.0 mg/kg/injection, schedule: Q01DX001 (ip), vehicle: water, evaluated on day 7) was 203 % of control. For the same compound, the T/C (T/C endpoint: mean survival time, dose: 400.0 mg/kg/injection, schedule: Q01DX001 (ip), vehicle: water, evaluated on day 30) was 144 [5 of 6 alive], 154 [4 of 6 alive], 163, 168 [4 of 6 alive], 205, 208 [5 of 6 alive], 211 [5 of 6 alive], 231 [5 of 6 alive], 290, 300 % of control [4 of 6 alive], the T/C (T/C endpoint: mean survival time, dose: 400.0 mg/kg/injection, schedule: Q01DX001 (ip), vehicle: water, evaluated on day 35) was 308 % of control and the T/C (T/C endpoint: mean survival time, dose: 400.0 mg/kg/injection, schedule: Q01DX001 (ip), vehicle: water, evaluated on day 60) was 203 % of control. For the same compound, the survivor count (T/C endpoint: mean survival time, dose: 400.0 mg/kg/injection, schedule: Q01DX001 (ip), vehicle: water) was 3 of 6, the T/C (T/C endpoint: mean survival time, dose: 500.0 mg/kg/injection, schedule: Q01DX001 (ip), vehicle: DMSO, evaluated on day 20) was 168 % of control and the T/C (T/C endpoint: mean survival time, dose: 500.0 mg/kg/injection, schedule: Q01DX001 (ip), vehicle: DMSO, evaluated on day 25) was 175 [4 of 6 alive] and 200 % of control [5 of 6 alive]. The T/C (T/C endpoint: mean survival time, dose: 500.0 mg/kg/injection, schedule: Q01DX001 (ip), vehicle: DMSO, evaluated on day 60) was 116 % of control [5 of 6 alive], the survivor count (T/C endpoint: mean survival time, dose: 500.0 mg/kg/injection, schedule: Q01DX001 (ip), vehicle: DMSO) was 3 of 6 and the survivor count (T/C endpoint: mean survival time, dose: 500.0 mg/kg/injection, schedule: Q01DX001 (ip), vehicle: Klucel (hydroxypropylcellulose) (HPC)) was 2 of 6. For the same compound, the survivor count (T/C endpoint: mean survival time, dose: 500.0 mg/kg/injection, schedule: Q01DX001 (ip), vehicle: saline with Tween-80) was 3 of 6, the T/C (T/C endpoint: mean survival time, dose: 500.0 mg/kg/injection, schedule: Q01DX001 (ip), vehicle: saline, evaluated on day 5) was 171 % of control and the T/C (T/C endpoint: mean survival time, dose: 500.0 mg/kg/injection, schedule: Q01DX001 (ip), vehicle: saline, evaluated on day 30) was 102 [4 of 6 alive], 155 [5 of 6 alive], 240 % of control. The T/C (T/C endpoint: mean survival time, dose: 500.0 mg/kg/injection, schedule: Q01DX001 (ip), vehicle: saline, evaluated on day 35) was 201 and 211 % of control [5 of 6 alive], the T/C (T/C endpoint: mean survival time, dose: 500.0 mg/kg/injection, schedule: Q01DX001 (ip), vehicle: saline, evaluated on day 40) was 223 % of control and the T/C (T/C endpoint: mean survival time, dose: 500.0 mg/kg/injection, schedule: Q01DX001 (ip), vehicle: saline, evaluated on day 45) was 94 [5 of 6 alive] and 474 % of control. For the same compound, the T/C (T/C endpoint: mean survival time, dose: 500.0 mg/kg/injection, schedule: Q01DX001 (ip), vehicle: saline, evaluated on day 60) was 227 % of control [5 of 6 alive], the survivor count (T/C endpoint: mean survival time, dose: 500.0 mg/kg/injection, schedule: Q01DX001 (ip), vehicle: saline) was 1 of 6, 2 of 6 (2×), 3 of 6 (4×) and the T/C (T/C endpoint: mean survival time, dose: 500.0 mg/kg/injection, schedule: Q01DX001 (ip), vehicle: water, evaluated on day 30) was 94 [4 of 6 alive], 99, 100 [4 of 6 alive], 104 [4 of 6 alive], 105 [4 of 6 alive], 112 [4 of 6 alive], 116, 127, 138, 149 [5 of 6 alive], 155, 159, 168, 168 [4 of 6 alive], 170 [4 of 6 alive], 179 [5 of 6 alive], 195 [4 of 6 alive], 205 [4 of 6 alive], 218 [5 of 6 alive], 219, 221 [5 of 6 alive], 238, 250, 291, 327 % of control. The T/C (T/C endpoint: mean survival time, dose: 500.0 mg/kg/injection, schedule: Q01DX001 (ip), vehicle: water, evaluated on day 35) was 91 [5 of 6 alive] and 321 % of control [5 of 6 alive], the T/C (T/C endpoint: mean survival time, dose: 500.0 mg/kg/injection, schedule: Q01DX001 (ip), vehicle: water, evaluated on day 40) was 406 % of control [4 of 6 alive] and the T/C (T/C endpoint: mean survival time, dose: 500.0 mg/kg/injection, schedule: Q01DX001 (ip), vehicle: water, evaluated on day 45) was 148 % of control [4 of 6 alive]. The T/C (T/C endpoint: mean survival time, dose: 500.0 mg/kg/injection, schedule: Q01DX001 (ip), vehicle: water, evaluated on day 60) was 426 % of control [4 of 6 alive], the survivor count (T/C endpoint: mean survival time, dose: 500.0 mg/kg/injection, schedule: Q01DX001 (ip), vehicle: water) was 0 of 6, 1 of 6, 1 of 3, 2 of 6 (2×), 3 of 6 (2×), 5 of 6 (4×) and the T/C [1] was 164 and 180 % of control. The survivor count [1] was 1 of 6 and 5 of 10, the T/C [2] was 84 % of control and the survivor count [2] was 0 of 10 and 10 of 10 (2×). The survivor count (T/C endpoint: mean survival time, dose: 1000.0 mg/kg/injection, schedule: Q01DX001 (ip), vehicle: saline) was 0 of 6, the T/C (T/C endpoint: median survival time, dose: 25.0 mg/kg/injection, schedule: Q01DX005 (ip), vehicle: saline) was 130 % of control and the T/C (T/C endpoint: median survival time, dose: 25.0 mg/kg/injection, schedule: Q01DX009 (ip), vehicle: saline) was 139 and 141 % of control. For the same compound, the T/C (T/C endpoint: median survival time, dose: 40.0 mg/kg/injection, schedule: Q01DX005 (ip), vehicle: saline, evaluated on day 30) was 127, 133, 134, 136, 138, 139 (2×), 140, 141 (3×), 144 (4×), 148 (4×), 150, 151, 156, 158, 159, 161 (2×), 166 % of control, the T/C (T/C endpoint: median survival time, dose: 40.0 mg/kg/injection, schedule: Q01DX005 (ip), vehicle: saline, evaluated on day 35) was 144 % of control and the T/C (T/C endpoint: median survival time, dose: 40.0 mg/kg/injection, schedule: Q01DX005 (ip), vehicle: saline, evaluated on day 60) was 148 and 182 % of control. For the same compound, the T/C (T/C endpoint: median survival time, dose: 40.0 mg/kg/injection, schedule: Q01DX009 (ip), vehicle: saline, evaluated on day 30) was 146, 147, 155 (2×), 156 (2×), 160, 161 (3×), 161 [5 of 6 alive], 162, 163, 165, 167, 171, 172 (2×), 175 (2×), 176 (4×), 185, 190, 205 % of control, the T/C (T/C endpoint: median survival time, dose: 40.0 mg/kg/injection, schedule: Q01DX009 (ip), vehicle: saline, evaluated on day 35) was 160 % of control and the T/C (T/C endpoint: median survival time, dose: 40.0 mg/kg/injection, schedule: Q01DX009 (ip), vehicle: saline, evaluated on day 60) was 162 and 166 % of control. The T/C (T/C endpoint: median survival time, dose: 45.0 mg/kg/injection, schedule: Q10HX004 (ip), vehicle: saline) was 136 % of control, the T/C (T/C endpoint: median survival time, dose: 50.0 mg/kg/injection, schedule: Q01DX001 (ip), vehicle: saline, evaluated on day 6) was 126 and 131 % of control and the T/C (T/C endpoint: median survival time, dose: 50.0 mg/kg/injection, schedule: Q01DX001 (ip), vehicle: saline, evaluated on day 11) was 126 and 131 % of control. For the same compound, the T/C (T/C endpoint: median survival time, dose: 50.0 mg/kg/injection, schedule: Q01DX001 (ip), vehicle: saline, evaluated on day 20) was 122 % of control and the T/C (T/C endpoint: median survival time, dose: 50.0 mg/kg/injection, schedule: Q01DX001 (ip), vehicle: saline, evaluated on day 30) was 129 and 133 % of control.
